Measurements reported in patent US20050074826A1.
These are yes or no findings as the source states them, for the method shown. Some entries that bind do so weakly or less than the wild type.

Protein sequences, listed by entry. Tags and fused reporters are not part of them. Lines headed by an entry give the natural chain unless they say otherwise; changes in a name come on top.
UniProt P25106: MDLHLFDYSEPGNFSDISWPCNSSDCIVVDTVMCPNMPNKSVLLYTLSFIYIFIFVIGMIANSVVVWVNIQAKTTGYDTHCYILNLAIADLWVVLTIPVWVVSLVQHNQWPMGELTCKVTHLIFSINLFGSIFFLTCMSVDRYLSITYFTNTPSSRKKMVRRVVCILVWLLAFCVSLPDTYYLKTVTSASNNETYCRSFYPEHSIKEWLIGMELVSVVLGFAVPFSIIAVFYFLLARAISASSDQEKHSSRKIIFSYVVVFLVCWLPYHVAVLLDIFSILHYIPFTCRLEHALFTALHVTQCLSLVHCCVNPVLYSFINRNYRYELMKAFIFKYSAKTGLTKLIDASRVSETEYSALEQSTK

Experiments:
[1] = target: CCX-CKR2 (RDC1), human (human) (UniProt P25106); experiment: dose response competition with 125I SDF-1α on MCF-7 cells (CCX-CKR2)
[2] = target: CCX-CKR2 (RDC1), human (human) (UniProt P25106); experiment: competition with radiolabeled SDF-1 on MDA MB 435s cells transfected with CCX-CKR2
[3] = target: CCX-CKR2 (RDC1), human (human) (UniProt P25106); experiment: radioligand displacement on MCF-7 cells, 125I SDF-1α and 125I I-TAC as probes
[4] = target: CCX-CKR2 (RDC1), human (human) (UniProt P25106); experiment: DisplaceMax displacement of 125I SDF-1α on MCF-7 cells (CCX-CKR2)
[5] = target: CCX-CKR2 (RDC1), human (human) (UniProt P25106); experiment: competition with 125I SDF-1α on MDA MB 435s cells stably transfected with CCX-CKR2

Measured: binding

B1: human I-TAC (ligand, UniProt O14625 22-94, looked up)
chain: FPMFKRGRCLCIGPGVKAVKVADIEKASIMYPSNNCDKIEVIITLKENKGQRCLNPKSKQARLIIKKVERKNF
binds: [1] | [2] | [3] | [4] | [5]

B2: mouse I-TAC (ligand, UniProt Q9JHH5 22-100, looked up)
chain: FLMFKQGRCLCIGPGMKAVKMAEIEKASVIYPSNGCDKVEVIVTMKAHKRQRCLDPRSKQARLIMQAIEKKNFLRRQNM
binds: [4]
